The list is a part of this screen's results and no random one: it is rich in T/C values a quarter to a half above the control, in often repeated tests (any T/C) and in doses without a T/C. Further doses and runs are listed elsewhere. T/C is the treated group as % of the vehicle group. Some doses have a count of surviving animals in place of a T/C: the source holds a T/C of zero for them, seemingly a mark for toxic or unscored doses. Some survivor counts are full or nearly so, which does not show that the dose was tolerated: the source hardly ever lists a survival T/C far under the control, and the zero likely stands for such cases as well. Counts of survivors are from the toxicity check (mostly the fifth day) where no day follows; animals may have died later. Schedule codes are those of the source, read here as Q, the interval in days (D) or hours (H), X, the number of doses. Some doses were run more than once; the results are listed from low to high. Some schedule codes hold Z or #, which are not explained here. Where survival is the endpoint, the PubChem record calls one and a half times the control and up active, and a quarter to a half above the control has no call in these data; cut-offs in other NCI protocols can differ.
Test system: L1210 leukemia ip in BDF1 mice, survival T/C
Assay: NCI In Vivo Anticancer Drug Screen. Data for tumor model L1210 Leukemia (intraperitoneal) in B6D2F1 (BDF1) mice
Details: T/C endpoint: mean survival time, higher T/C = longer survival
[1] = dose: 200.0 mg/kg/injection, schedule: Q01DX009 (ip), vehicle: Klucel (hydroxypropylcellulose) (HPC)
[2] = dose: 400.0 mg/kg/injection, schedule: Q01DX009 (ip), vehicle: Klucel (hydroxypropylcellulose) (HPC)
[3] = dose: 132.0 mg/kg/injection, schedule: Q01DX009 (ip), vehicle: saline

SMILES: COc1cc(CC2c3cc(OC)c(OC)cc3CCN2C)c(Oc2cc3c(cc2OC)-c2c(OC)c(OC)c(OC)c4c2C(C3)N(C)CC4)cc1OC (stereo not given)
- survivor count (dose: 400.0 mg/kg/injection, schedule: Q04DX003 (ip), vehicle: saline with Tween-80): 1 of 6

SMILES: CCNC1CCCCC1
- survivor count (dose: 200.0 mg/kg/injection, schedule: Q01DX009 (ip), vehicle: saline with Tween-80): 0 of 6

SMILES: CCCN(C)N=Nc1ccccc1C(=O)O
- T/C (dose: 25.0 mg/kg/injection, schedule: Q01DX009 (ip), vehicle: Klucel (hydroxypropylcellulose) (HPC)): 140 % of control
- T/C (dose: 50.0 mg/kg/injection, schedule: Q01DX009 (ip), vehicle: Klucel (hydroxypropylcellulose) (HPC), evaluated on day 20): 125 % of control
- T/C (dose: 50.0 mg/kg/injection, schedule: Q01DX009 (ip), vehicle: Klucel (hydroxypropylcellulose) (HPC), evaluated on day 30): 130 and 140 % of control
- survivor count (dose: 100.0 mg/kg/injection, schedule: Q01DX009 (ip), vehicle: Klucel (hydroxypropylcellulose) (HPC)): 0 of 6, 3 of 6, 6 of 6
- survivor count [1]: 6 of 6
- survivor count [2]: 4 of 6

SMILES: N#CC(C#N)c1c(F)c(F)c(C(F)(F)F)c(F)c1F
- survivor count (dose: 80.0 mg/kg/injection, schedule: Q01DX001 (ip), vehicle: Klucel (hydroxypropylcellulose) (HPC)): 0 of 6

SMILES: O=C(COc1ccc(Cl)cc1)Nc1ccc(F)cc1
- survivor count (dose: 200.0 mg/kg/injection, schedule: Q04DX003 (ip), vehicle: Klucel (hydroxypropylcellulose) (HPC)): 6 of 6
- survivor count [2]: 2 of 6

SMILES: OC(CNc1ccc(Cl)cc1)CN1CCCCC1 (stereo not given)
- survivor count (dose: 200.0 mg/kg/injection, schedule: Q04DX003 (ip), vehicle: saline): 2 of 6
- survivor count (dose: 400.0 mg/kg/injection, schedule: Q01DX001 (ip), vehicle: saline): 3 of 6

SMILES: CCCCCCCCCCCC(=O)Nc1ccc(O)cc1
- survivor count (dose: 100.0 mg/kg/injection, schedule: Q01DX009 (ip), vehicle: gum acacia): 6 of 6

SMILES: CC(=O)Nc1ccc(/C=N/N=C(N)N)cc1
- survivor count (dose: 250.0 mg/kg/injection, schedule: Q01DX Z (ip), vehicle: carboxymethylcellulose (CMC)): 3 of 6
- survivor count (dose: 500.0 mg/kg/injection, schedule: Q01DX Z (ip), vehicle: carboxymethylcellulose (CMC)): 1 of 6

SMILES: C=CS(=O)(=O)c1ccccc1
- survivor count [1]: 0 of 6

SMILES: CN1CCc2ccccc2C1Cc1cc(OCc2ccccc2)ccc1N (stereo not given)
- survivor count (dose: 100.0 mg/kg/injection, schedule: Q01DX001 (ip), vehicle: carboxymethylcellulose (CMC)): 2 of 4
- survivor count (dose: 200.0 mg/kg/injection, schedule: Q01DX001 (ip), vehicle: carboxymethylcellulose (CMC)): 1 of 4
- survivor count (dose: 400.0 mg/kg/injection, schedule: Q01DX001 (ip), vehicle: carboxymethylcellulose (CMC)): 0 of 4

SMILES: CCOCCOCCOCCCNCCCN1CC1
- T/C (dose: 60.0 mg/kg/injection, schedule: Q01DX009 (ip), vehicle: saline): 128 and 138 % of control
- T/C (dose: 88.0 mg/kg/injection, schedule: Q01DX009 (ip), vehicle: saline): 138 % of control
- T/C (dose: 132.0 mg/kg/injection, schedule: Q01DX001 (ip), vehicle: saline): 134 % of control
- T/C [3]: 148 % of control
- survivor count [3]: 5 of 6
- T/C (dose: 200.0 mg/kg/injection, schedule: Q01DX001 (ip), vehicle: saline): 130 % of control
- survivor count (dose: 200.0 mg/kg/injection, schedule: Q01DX009 (ip), vehicle: saline): 5 of 6
- survivor count (dose: 300.0 mg/kg/injection, schedule: Q01DX009 (ip), vehicle: saline): 0 of 6 and 1 of 3

SMILES: c1cc[c]([Sb]([S]c2ncnc3nc[nH]c23)[c]2ccccc2)cc1
- survivor count (dose: 20.0 mg/kg/injection, schedule: Q01DX001 (ip), vehicle: other): 3 of 6
- survivor count (dose: 40.0 mg/kg/injection, schedule: Q01DX001 (ip), vehicle: other): 0 of 6
- survivor count (dose: 80.0 mg/kg/injection, schedule: Q01DX001 (ip), vehicle: other): 0 of 6
- survivor count (dose: 100.0 mg/kg/injection, schedule: Q01DX001 (ip), vehicle: other): 0 of 6
- survivor count (dose: 200.0 mg/kg/injection, schedule: Q01DX001 (ip), vehicle: other): 0 of 6
- survivor count (dose: 400.0 mg/kg/injection, schedule: Q01DX001 (ip), vehicle: other): 0 of 6

SMILES: O=C([S][Ge]([c]1ccccc1)([c]1ccccc1)[c]1ccccc1)c1ccc([N+](=O)[O-])cc1
- survivor count [2]: 4 of 6
